Measured values taken from patent US20160047821A1.
No constants are given. Whether binding was seen depends on the method and setting. Binding seen in cells or lysates may run through a third protein. Some entries that bind do so weakly or less than the wild type.

Protein sequences, listed by entry. Tags and fused reporters are not part of them. Lines headed by an entry give the natural chain unless they say otherwise; changes in a name come on top.
UniProt Q60680: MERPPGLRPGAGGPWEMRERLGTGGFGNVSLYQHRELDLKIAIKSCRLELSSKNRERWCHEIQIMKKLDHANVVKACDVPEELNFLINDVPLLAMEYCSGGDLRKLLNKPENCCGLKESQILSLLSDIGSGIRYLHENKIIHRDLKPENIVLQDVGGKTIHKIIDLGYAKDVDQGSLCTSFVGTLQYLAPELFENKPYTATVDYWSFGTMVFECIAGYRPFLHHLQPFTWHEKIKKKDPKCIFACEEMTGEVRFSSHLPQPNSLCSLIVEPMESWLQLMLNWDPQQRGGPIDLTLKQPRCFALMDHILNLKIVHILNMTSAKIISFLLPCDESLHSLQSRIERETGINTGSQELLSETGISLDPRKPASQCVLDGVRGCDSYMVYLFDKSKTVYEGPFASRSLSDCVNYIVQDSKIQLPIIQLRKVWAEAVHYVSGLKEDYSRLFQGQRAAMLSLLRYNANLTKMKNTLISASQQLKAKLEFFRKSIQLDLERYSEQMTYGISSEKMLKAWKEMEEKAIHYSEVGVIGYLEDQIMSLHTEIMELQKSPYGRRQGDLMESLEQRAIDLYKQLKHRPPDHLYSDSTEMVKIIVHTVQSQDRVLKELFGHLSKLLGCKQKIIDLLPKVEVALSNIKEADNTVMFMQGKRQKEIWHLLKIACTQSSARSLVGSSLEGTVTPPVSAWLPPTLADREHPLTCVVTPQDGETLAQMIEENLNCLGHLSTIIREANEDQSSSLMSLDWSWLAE
UniProt O88351: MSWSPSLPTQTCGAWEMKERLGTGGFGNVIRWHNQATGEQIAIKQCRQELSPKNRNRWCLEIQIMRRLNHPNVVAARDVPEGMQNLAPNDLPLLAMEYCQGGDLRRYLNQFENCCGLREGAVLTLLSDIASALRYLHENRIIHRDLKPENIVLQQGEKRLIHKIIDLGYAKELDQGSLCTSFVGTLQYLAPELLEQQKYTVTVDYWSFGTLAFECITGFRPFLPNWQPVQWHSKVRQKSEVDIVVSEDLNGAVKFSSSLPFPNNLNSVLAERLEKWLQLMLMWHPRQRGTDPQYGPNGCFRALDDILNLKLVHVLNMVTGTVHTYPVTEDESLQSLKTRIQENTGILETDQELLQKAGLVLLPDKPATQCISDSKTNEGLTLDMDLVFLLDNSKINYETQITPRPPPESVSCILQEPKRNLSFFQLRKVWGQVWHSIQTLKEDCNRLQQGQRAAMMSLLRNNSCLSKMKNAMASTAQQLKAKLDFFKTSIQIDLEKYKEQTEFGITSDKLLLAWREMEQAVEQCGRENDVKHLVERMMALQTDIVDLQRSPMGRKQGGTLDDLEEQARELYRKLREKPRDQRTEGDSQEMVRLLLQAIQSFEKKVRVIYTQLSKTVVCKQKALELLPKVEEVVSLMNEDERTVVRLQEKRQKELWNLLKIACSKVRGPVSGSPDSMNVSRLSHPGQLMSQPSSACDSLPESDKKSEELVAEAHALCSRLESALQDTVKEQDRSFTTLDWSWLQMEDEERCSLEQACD
UniProt O88522: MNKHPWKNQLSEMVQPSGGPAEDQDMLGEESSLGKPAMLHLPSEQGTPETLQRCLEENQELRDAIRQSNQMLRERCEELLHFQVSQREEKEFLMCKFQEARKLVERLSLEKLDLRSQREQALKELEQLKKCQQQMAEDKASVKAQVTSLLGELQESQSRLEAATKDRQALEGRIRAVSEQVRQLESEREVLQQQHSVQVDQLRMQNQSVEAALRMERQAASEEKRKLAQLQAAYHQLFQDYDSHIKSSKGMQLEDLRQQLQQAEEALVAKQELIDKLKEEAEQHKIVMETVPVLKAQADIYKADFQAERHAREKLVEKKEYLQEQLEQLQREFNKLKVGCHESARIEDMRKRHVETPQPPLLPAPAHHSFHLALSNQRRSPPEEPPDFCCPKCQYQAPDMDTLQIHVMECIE

Target: IκB kinase (IKK) complex (endogenous, WT MEFs) (mouse) (UniProt Q60680+O88351+O88522)
Experiment: coimmunoprecipitation from WT MEF whole cell extracts, untreated or TNFα for 6 hours

- binding: binds
B1: endogenous RelB of WT mouse embryonic fibroblasts (MEFs) (protein)
chain: MPSRRAARESAPELGALGSSDLSSLSLTVSRTTDELEIIDEYIKENGFGLDGTQLSEMPRLVPRGPASLSSVTLGPAAPPPPATPSWSCTLGRLVSPGPCPRPYLVITEQPKQRGMRFRYECEGRSAGSILGESSTEASKTLPAIELRDCGGLREVEVTACLVWKDWPHRVHPHSLVGKDCTDGVCRVRLRPHVSPRHSFNNLGIQCVRKKEIEAAIERKIQLGIDPYNAGSLKNHQEVDMNVVRICFQASYRDQQGHLHRMDPILSEPVYDKKSTNTSELRICRINKESGPCTGGEELYLLCDKVQKEDISVVFSTASWEGRADFSQADVHRQIAIVFKTPPYEDLEISEPVTVNVFLQRLTDGVCSEPLPFTYLPRDHDSYGVDKKRKRGLPDVLGELSSSDPHGIESKRRKKKPVFLDHFLPGHSSGLFLPPSALQPADSDFFPASISLPGLEPPGGPDLLDDGFAYDPSAPTLFTMLDLLPPAPPLASAVVGSGGAGATVVESSGPEPLSLDSFAAPGPGDVGTASLVGSNMFPNQYREAAFGGGLLSPGPEAT
